In all, about 31,000 sequences went through this assay and about 1,400 (4.5%) were called active.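 Rule for the calls: active = median seed-adjusted z-score above 1 or below -1; inactive = the rest.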 The list shows a part of the results.

The nature of the experiment: Novel Modifiers of Survival Motor Neuron (SMN) Protein: Gene Identification via Genome-wide siRNA Screen.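 Note: luminescence tracks full-length SMN protein made from the SMN2 reporter.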 The conditions noted are these: HEK293T SMN2-luciferase reporter, siRNA knockdown, 72 h; actives lie on both sides. In a few lines: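 HEK293T cells stably expressing an SMN2 splicing/cDNA-luciferase reporter were reverse-transfected with a druggable-genome siRNA library and read by luminescence at 72 hours; hits defined by MAD score above 1.0 or below -1.0.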
On the technique in general: In a reporter assay the amount or activity of a reporter protein is the signal.
Turning to AGGUCAACCAGAUCAUUAATT against ELFN2, the median seed-adjusted z-score was inactive: -0.0888.
As to UCAACUACCCGUUCGAGAATT against NDUFS8, the median seed-adjusted z-score was inactive: -0.467.
In the case of CAAUCAGCAGAGUUACAUUTT against CPEB3 it was inactive: 0.086; in that of AGAACUGCGUGACUAUACATT against ZNF417, inactive: 0.0205.
For CUGAUUCAAGAGAAGAUUATT against SMARCAL1, the median seed-adjusted z-score is inactive: -0.145.
In the case of GGCUUCCAGAAGAUCUACATT against FREQ it was inactive: -0.353; in that of CCACUAUUCUAGCAUCCGUTT against PKP4, inactive: 0.368.
As to GUAUCUGCGAGGACGAAAATT against RNF113B, the median seed-adjusted z-score was inactive: -0.228.
In the case of GCUGGUGCUUAGCAACAAATT against RNASE10 it was inactive: -0.109.
For GCCCAGACAUGAGCUACGATT against ABHD11, the median seed-adjusted z-score is inactive: -0.189.
As for CACUCAACCCUGUCGCUUUTT against NR2E1, the median seed-adjusted z-score was inactive: 0.559.
For GCAUCCGUGGAAAUGGUUATT against ASNS, the median seed-adjusted z-score is active: -1.1.
GCACUUUUGCUUUCAGAUATT against SNX10: the median seed-adjusted z-score is inactive: 0.391.
In the case of GGAUCUCAACAUGUUCCUATT against LCAT it was inactive: 0.526.
Regarding ACGCAGUUCUGGAACUACCTT against TNFRSF6B, the median seed-adjusted z-score is inactive: 0.0458.
For the sequence CGAAUGUCACCAUAUAUAATT against IL1RL1, the median seed-adjusted z-score was inactive: -0.286.
With GGUUUGAAGCAGUAUUACATT against DDX20, the median seed-adjusted z-score was inactive: -0.0137.
On to GGCUGGUCCUCCAAACAUATT against CBX2, for which the median seed-adjusted z-score is inactive: -0.215.
For GAGCUAAGUUUGUAUCCAATT against EFHB, the median seed-adjusted z-score is inactive: 0.675.
As to “GGGACAUUGUAUGAGCUCATT against CSGALNACT1”, the median seed-adjusted z-score is inactive: -0.235.
Take CGCUUAUCUUCGAUAUCUATT against DHCR24: the median seed-adjusted z-score is inactive: 0.493.
With GGAGUACACUUGAAAGACUTT against RASGRP3, the median seed-adjusted z-score is inactive: 0.0202.
Take CAGCAAAGGUGCAGCCUUUTT against BGLAP: the median seed-adjusted z-score is inactive: -0.488.
Consider UCAUAUGUAUGAUCCAAUUTT against SPINK9, for which the median seed-adjusted z-score was inactive: 0.392.
As to CACUGUUAAUAUUCGCUAUTT against SERAC1, the median seed-adjusted z-score was inactive: -0.0919.
For GCGACUGUCUCGACAGAUATT against HTT, the median seed-adjusted z-score was inactive: -0.234.
In the case of GGUGGGAUCAGAUUGCUGATT against KLHL3 it was inactive: -0.237; in that of GCUCUAGCCUUAUUACGCATT against ZNF256, inactive: 0.00739.
Take GCUGAUUAUUGUAUUCAGATT against HTATSF1: the median seed-adjusted z-score is inactive: -0.411.
In the case of GCAAGGAGAUUUACUCGAATT against RECQL it was inactive: -0.905; in that of GAGGCAUGAAAAUAUCUUATT against ACVR1, inactive: -0.217; in that of AGACUACGGUUUGAGCUCATT against IL6R, inactive: -0.441.
For GGAAUGCAAGGAGCAAGUATT against CSTF2, the median seed-adjusted z-score is inactive: 0.586.
As for CGGCAUUACCUCAACCUGATT against HELT, the median seed-adjusted z-score is inactive: -0.192.
In the case of GUCUAUCUCUUGUCUAAAATT against HYAL4 it was inactive: -0.236; in that of ACAACAACAAGAUCCGUGATT against CHAD, inactive: 0; in that of CCAGAAUGCCCAUAUCACATT against RS1, inactive: -0.684.
For GAUGCAGUUUUGUACUUGATT against PNPLA1, the median seed-adjusted z-score was inactive: 0.00692.
As for CUGGAUUUCUGUUCAGAUUTT against ZNRD1, the median seed-adjusted z-score was inactive: -0.133.
GGGUAAUUGGAACAUGUUUTT against RCN3: the median seed-adjusted z-score was active: -2.44.
For AGAACGGCCUUCUAAGAAATT against IRF2, the median seed-adjusted z-score is inactive: 0.367.
On to GAGUCCAUAUGGUACAAGATT against PNMA1, for which the median seed-adjusted z-score is inactive: 0.2.
Turning to GGUUUCUCGACUUCAGAAATT against CHST4, the median seed-adjusted z-score was inactive: 0.349.
In the case of CGAGCUUUUUCAUUGGAGATT against GPRC6A it was inactive: 0; in that of GCAGAACCGUUAUUACAAATT against PITPNA, inactive: -0.225.
For UCCAUGGACUGAUCUAUAATT against PPP2R5D, the median seed-adjusted z-score was inactive: 0.848.
As for CGGUCACUCUCAACAUGGATT against DVL3, the median seed-adjusted z-score is inactive: -0.57.
Turning to GUAUCUUCCUACGAAGUUATT against PHKA1, the median seed-adjusted z-score was inactive: 0.286.
In the case of GGGUGUGGAUGGUCUGACUTT against COL9A3, the median seed-adjusted z-score was inactive: 0.16.
With CCCACCUAAAAGAACGAAATT against ABCE1, the median seed-adjusted z-score was inactive: -0.0527.
In the case of GAACUUGACGAUACUCUAATT against PPP2CA it was inactive: 0.731; in that of ACUGUGCUGUGGUUGAUUATT against GPR20, inactive: 0.442.
As to CAGAGUAUCUUCAACUAAUTT against TNFSF11, the median seed-adjusted z-score is inactive: 0.0212.
Consider GUUCCACAAUAGCCACGUGTT against COX6A2, for which the median seed-adjusted z-score is inactive: 0.714.
CGACACUUUCUAUCGACAATT against UBA3: the median seed-adjusted z-score was inactive: 0.605.
In the case of GGACAUACACUGAGAGUCATT against PDLIM2, the median seed-adjusted z-score is inactive: 0.267.
Take GCUGGUCACCGUGAAGUCATT against RASL12: the median seed-adjusted z-score was inactive: -0.256.
As for ACAAGUUCACGCCCAAGUATT against LMNB2, the median seed-adjusted z-score was inactive: -0.15.
For the sequence GAGCUGCGACUGUAAGAGATT against DHX35, the median seed-adjusted z-score was inactive: -0.066.
Consider AAACGGCUUUACUUACAAATT against UCRC, for which the median seed-adjusted z-score is inactive: -0.93.
As for CAAGAUUAGAGAAUACAAATT against ATP5J, the median seed-adjusted z-score is inactive: 0.242.
Turning to GCAGCUCUGAGAACGGCAATT against ARHGEF1, the median seed-adjusted z-score is inactive: -0.0658.
For GGUUACCAGUUAUAUGACATT against MCCC2, the median seed-adjusted z-score was inactive: -0.0566.
Consider GGAUAUCUUAUACUGGUGATT against DMGDH, for which the median seed-adjusted z-score is inactive: 0.0323.
Take GGAAGACUGUGAAGCUACATT against RAB4B: the median seed-adjusted z-score is inactive: -0.207.
In the case of CGAACCUAAUGCUCAACAATT against PREX2 it was inactive: -0.0625.
For GGAUCCACAUAAUGAAGAATT against DNAL1, the median seed-adjusted z-score was inactive: 0.866.
On to GGACGAGAAAAACUGCUCATT against CORIN, for which the median seed-adjusted z-score is inactive: -0.0274.
With GCUAAGGAACUACUAGAUATT against STK33, the median seed-adjusted z-score was inactive: -0.168.
Consider CUAUAGCCCUCAUAACUAATT against ARSB, for which the median seed-adjusted z-score was inactive: 0.914.
Consider CCGUAUUUCUAGUUCCCUUTT against ZNF442, for which the median seed-adjusted z-score is active: 1.06.
Take CCUUCAUUGAGGACCUGAATT against PTP4A3: the median seed-adjusted z-score is inactive: 0.354.
In the case of CUCAAUGAGUGGUACGUUUTT against ZIC5 it was inactive: 0; in that of CCGAGUGGGUGAGCACAAATT against NAGS, inactive: 0.0484.
For GGACUUGGUUUUUCGUACATT against MED14, the median seed-adjusted z-score is active: -3.22.
For GAUCAGUCGUGAGACGUGUTT against PRSS8, the median seed-adjusted z-score is inactive: -0.275.
In the case of GCACCACACUGCGAGAUGATT against TAPBP, the median seed-adjusted z-score was inactive: -0.786.
Take GGCACUAUUUCCAAUGGAATT against ADAMTS12: the median seed-adjusted z-score is inactive: -0.0721.
As to GCACGAGUACUACAGAGGATT against POFUT2, the median seed-adjusted z-score is inactive: -0.86.
Regarding GGGUAUCACCUCACGCUUATT against ABCA12, the median seed-adjusted z-score is inactive: 0.0759.
In the case of GGACUGCUAUUUAAAUUCUTT against SLC7A1 it was inactive: 0.445; in that of GCAUCGUGUUUACCAUCGATT against CDH20, inactive: -0.397.
On to GCAAGGCUUUUGACGUAGATT against MAP3K6, for which the median seed-adjusted z-score is inactive: 0.
As for CCAGCAGACUUGAGUCUGATT against GNB3, the median seed-adjusted z-score was inactive: -0.373.
On to GCAUCUCUAUUGUAGCCCUTT against GHRHR, for which the median seed-adjusted z-score was inactive: 0.
Regarding UGAGUCACGUGAUAGAUUATT against ZNF587, the median seed-adjusted z-score was inactive: -0.178.
Turning to AGAUGCUUGUUAUACCUUUTT against KRT38, the median seed-adjusted z-score is inactive: 0.0884.
Turning to CCACUAUCCUGAGAAGGAATT against IYD, the median seed-adjusted z-score is inactive: -0.572.
In the case of GCUGGUACACUGUAUCUCATT against MTMR14 it was inactive: 0.131.
Turning to GCAACGACAAGGUGAUUAATT against ALDH3A1, the median seed-adjusted z-score is inactive: -0.486.
For GGCUGUACAUCGGCAUCAATT against ABCD4, the median seed-adjusted z-score was inactive: -0.114.
For the sequence CAGUGAUGGUGAUUCAGAUTT against PHF10, the median seed-adjusted z-score is inactive: -0.199.
In the case of CUCUAAUGUCUGAUAUUCATT against TDRD6 it was inactive: 0; in that of CAGUGUAAUUAGGCAACUATT against MYO3A, inactive: 0.0776; in that of CACUGUUCAUUGUGACUAUTT against TAF1L, inactive: 0.289.
In the case of CGAUGUCAGUGACACUUGATT against INPP4B it was inactive: 0.0722.
As for GUGUGAGGGUUGAACUCAATT against EGLN1, the median seed-adjusted z-score is active: 2.05.
As to AAAAUUAUCUAAGCAGUAUTT against TTC7A, the median seed-adjusted z-score is inactive: -0.303.
Regarding AGUCAGGUACGAAGAUGAATT against KRT75, the median seed-adjusted z-score is inactive: 0.0773.
Consider GGAGCACAGUCGGAUCAAATT against ALDH4A1, for which the median seed-adjusted z-score is inactive: 0.0362.
As to CGACCUUGAUUGAGAUCUUTT against KCNJ15, the median seed-adjusted z-score is inactive: 0.0332.
In the case of GCUUCCUCUUGGACCUCAATT against SLC12A8 it was inactive: 0.113; in that of GAGCAGAAAUUAUUCGUUATT against PGDS, inactive: 0.02.
For GGUGAUCAUUCCAAGAAGATT against ISL2, the median seed-adjusted z-score is inactive: 0.392.
For the sequence GCUCUACGCAAGGAGAUCATT against BATF, the median seed-adjusted z-score was inactive: -0.0501.
Regarding CCACUGAUCCUUCCCGAUATT against ENO2, the median seed-adjusted z-score is inactive: 0.418.
In the case of UCUUAGAUGUCAAGCUGAATT against RNF7 it was active: -1.18.

The record behind these values is PubChem BioAssay AID1347426 (Functional Genomics Laboratory (NCATS/FGL), 2020).
